Laboratory results reported in paper PMC12441059.
These are yes or no findings as the source states them, for the method shown. Binding seen in cells or lysates may run through a third protein.

Target: EGFR (endogenous, CaOV3 cells) (human (endogenous in CaOV3)) (UniProt P00533)
Assay: co-IP; whole cell lysates of CaOV3 cells, in the presence of both ligands (EGF + VEGF-A); anti-EGFR monoclonal antibodies and BsAb precipitated with Protein A and G beads; Western blot for EGFR and VEGFR2

With “VEGFR2 (endogenous, CaOV3 cells) (from UniProt P35968 20-1356) (receptor)” the binding was “no binding”.
